# Test results published in PubChem BioAssay AID2685 (National Center for Advancing Translational Sciences (NCATS), 2010).
# Some of the results follow. Further columns of the screen follow, without active or inactive calls. The list favours compounds with an active or inconclusive main result. Potencies come from curve fits of mixed quality, noted in brackets.
# Test: qHTS Assay for Lipid Storage Modulators in Drosophila S3 Cells;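 for cell number change: cells counted by Cell Tracker Red CMTPX staining in the red channel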
# Conditions: BODIPY lipid droplet fluorescence, 18-24 h; for cell number change: measured here: cell count max response, cells fed with added oleic acid
# Summary of the method: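 Laser-scanning cytometry quantifies lipid droplet accumulation (500–530 nm total intensity; droplet/cell object ratio) in oleic acid-fed (400 uM added) Drosophila S3 cells treated with a concentration series. 20 uM Triacsin C defined 100% inhibition.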
# [1] = measured here: lipid fluorescence (Fed channel) AC50, cells fed with added oleic acid
# [2] = measured here: cell number channel AC50, cells fed with added oleic acid
Structure (SMILES),AC50 [1],cell number change [%],AC50 [2]
O=C(CSc1n[nH]c(-c2cc(Cl)ccc2Cl)n1)NCCN1C(=O)CSC1=O,"13 µM [falling, partial curve]",–,–
CN(C)c1nc(N)nc(CSc2ncc(Cl)cc2Cl)n1,–,-53.9,"14.6 µM [falling, partial curve, poor fit]"
Cc1ccc(NCC(=O)N/N=C/c2cc(O)ccc2[N+](=O)[O-])cc1,–,10.3,"0.092 µM [rising, partial curve, poor fit]"
COC(=O)c1cccc(NC(=O)CSc2nnc(-c3ccco3)o2)c1,–,-7.39,–
Fc1ccc(CSc2ccc3nnc(-c4cccnc4)n3n2)cc1,–,-69.1,"29.1 µM [falling, single point]"
CC(NCC(=O)Nc1ccccc1C(=O)NC1CC1)c1cccc(Cl)c1 (configuration not stated),–,-20,–
Cc1cc(C)c(S(=O)(=O)N2CCCC2=O)c(C)c1N(C)S(C)(=O)=O,"0.82 µM [falling, single point]",8.42,–
COc1ccccc1C(=O)Nc1nnc(S(=O)(=O)N2CCC(C)CC2)s1,"8.2 µM [falling, partial curve, poor fit]",-9.48,–
Cc1ccc2c(Cl)cc(Cl)c(OCC(=O)Nc3cccc(S(=O)(=O)N(C)C)c3)c2n1,"1.84 µM [rising, full curve]",29.5,–
COc1cc(C(=S)N2CCOCC2)cc(OC)c1OC(=O)c1ccccc1[N+](=O)[O-],–,-32.5,"6.51 µM [falling, partial curve]"
Cc1ccc(-c2csc(NC(=O)c3ccco3)n2)cc1C,–,-1.35,–
CCOc1ccccc1C(=O)Nc1cccc2ccccc12,–,-18.3,–
CC(C)C(=O)N=c1sc2cc(F)cc(F)c2n1C,"4.11 µM [rising, full curve, poor fit]",4.75,–
CC(C)(C)N(Cc1ccccc1)C(=O)c1ccc(Cl)cc1[N+](=O)[O-],–,18.8,–
CCCCn1c(N2CCCC2)nc2c1c(=O)[nH]c(=O)n2C,–,-12.5,–
Cc1ccccc1C(=O)Nc1cccc(NC(=O)c2cccnc2)c1,"6.51 µM [rising, partial curve]",4.27,–
Cc1ccccc1-n1ccnc1SCC(=O)O,"0.184 µM [falling, full curve, poor fit]",1.39,–
Cc1ccc2c(c1)c1ncnc(N3CCC4(CC3)OCCO4)c1n2C,"2.06 µM [rising, full curve]",9.95,–
Brc1ccc(OCc2ccccc2)c(CNCC2CCCO2)c1 (configuration not stated),–,11.4,–
CCC(Sc1nc2sc(C(=O)OC)c(C)c2c(=O)n1N)C(=O)N(CC)CC (configuration not stated),–,44.4,"29.1 µM [rising, single point]"
COc1ccc(C(=O)NCCc2cc3c(OC)ccc(OC)c3[nH]c2=O)cc1OC,"0.058 µM [falling, full curve, poor fit]",-9.58,–

# Full records as entered above.
# `COc1cc(C(=S)N2CCOCC2)cc(OC)c1OC(=O)c1ccccc1[N+](=O)[O-]` reads cell number change [%]: -32.5; AC50 [2]: 6.51 µM [falling, partial curve]
# `Cc1ccc(NCC(=O)N/N=C/c2cc(O)ccc2[N+](=O)[O-])cc1` reads cell number change [%]: 10.3; AC50 [2]: 0.092 µM [rising, partial curve, poor fit]
# `Cc1ccccc1C(=O)Nc1cccc(NC(=O)c2cccnc2)c1` reads AC50 [1]: 6.51 µM [rising, partial curve]; cell number change [%]: 4.27
# `Cc1ccccc1-n1ccnc1SCC(=O)O` reads AC50 [1]: 0.184 µM [falling, full curve, poor fit]; cell number change [%]: 1.39

# Following part:

Structure (SMILES),AC50 [1],cell number change [%],AC50 [2]
COc1ccc(N2CC(C(=O)Nc3nc4ccccc4s3)CC2=O)cc1 (configuration not stated),"29.1 µM [rising, single point]",19.7,–
Nn1c(SCc2ccccc2F)nnc1-c1cccnc1,"32.6 µM [rising, single point]",17.9,–
CN(C(=O)c1cnc(N2CCN(c3ncccn3)CC2)c2ccccc12)c1ccc(Cl)cc1,"0.0651 µM [falling, full curve, poor fit]",1.04,–
COc1ccc(N(CC(=O)NC(C)C)S(=O)(=O)c2ccc(NC(C)=O)cc2)cc1,–,58.3,"18.4 µM [rising, single point]"
COc1ccc(/C=C/C(=O)Nc2cc(S(=O)(=O)N3CCCCC3)ccc2N2CCCCC2)cc1OC,"3.66 µM [falling, partial curve]",79.1,"29.1 µM [rising, single point]"
CCOC(=O)N1CCN(C(=O)CS(=O)Cc2nc(-c3ccc(C)cc3)oc2C)CC1 (configuration not stated),"6.51 µM [rising, single point]",10.6,"2.59 µM [rising, partial curve]"
COC(=O)CN1C(=S)N(c2ccc(OC)cc2)C(=O)/C1=C/c1cccs1,"2.31 µM [falling, full curve]",-33.5,"11.6 µM [falling, partial curve]"
O=C(COC(=O)c1ccccc1C(=O)c1ccc(Cl)cc1)NCCc1ccccc1,"20.6 µM [falling, single point]",-21.8,–
CCC(=O)N1CCc2cc(S(=O)(=O)NC(Cc3ccccc3)C(=O)O)ccc21 (configuration not stated),–,16.5,"0.082 µM [rising, full curve]"
CC(=O)Oc1cccc(C2C3=C(CC(C)(C)CC3=O)Nc3ccccc3N2C(C)=O)c1 (configuration not stated),"29.1 µM [rising, single point]",8.03,–
O=C(C1CCCN(C2CC(=O)N(c3ccc(Cl)cc3)C2=O)C1)N1CCCC1 (configuration not stated),"0.0651 µM [rising, partial curve]",0.867,–
Cn1nc(C(=O)NCCCN2CCCCC2)c2c1-c1ccccc1SC2,"29.1 µM [rising, single point]",16.4,–
Nc1cc(=O)[nH]c(SCC(=O)N2CCCCC2)n1,"25.9 µM [rising, single point]",3.72,–
CCOc1ccc(CN(C)C(=O)c2ccc3c(c2)NC(=O)C(C)S3)cc1OC (configuration not stated),"9.2 µM [falling, single point]",-11.8,–
O=C1C2C3c4ccccc4C(c4ccccc43)[C@@H]2c2nc3ccccc3n21 (some centres not stated),"4.61 µM [falling, single point]",149,"6.51 µM [falling, single point]"
O=c1c2c3c(sc2ncn1/N=C/c1cccnc1)CCCC3,–,102,"25.9 µM [rising, partial curve]"
COC(=O)c1sccc1NC(=O)Nc1ccc(F)cc1F,"0.58 µM [rising, single point]",-18.8,–
COc1cc(N/C=C2\CC(=O)NC(C)=C2C#N)cc(OC)c1OC,–,7.69,–
CCC(c1nnnn1Cc1ccc(OC)cc1)N(CCCO)Cc1cc2cc3c(cc2[nH]c1=O)OCO3 (configuration not stated),"5.8 µM [rising, partial curve, poor fit]",41.9,"5.8 µM [rising, full curve, poor fit]"
COc1ccccc1CNC(=O)c1sccc1C,"6.51 µM [rising, partial curve, poor fit]",-18.1,–
COc1ccccc1NC(=O)NC1(C(=O)NCC2CCCO2)CCCCC1 (configuration not stated),–,22.7,–

Structure (SMILES),AC50 [1],cell number change [%],AC50 [2]
CCCn1c(SCC(=O)Nc2nc(-c3ccc(OC)cc3)cs2)nc2c1c(=O)n(C)c(=O)n2C,"1.3 µM [rising, partial curve, poor fit]",0.3,–
O=C(COC(=O)C1(c2ccc(F)cc2)CCCC1)Nc1ncc(C(F)(F)F)cc1Cl,"20.6 µM [falling, single point]",-5.48,–
COc1ccc(Nc2nc(N)nc(CSc3nnc(N)s3)n2)cc1,"0.58 µM [falling, single point]",8.61,–
COC(=O)c1ccc(/C=C/c2c(-c3ccc(OC)cc3)oc3ccc(N4CCOCC4)cc23)cc1,–,-53.1,"16.4 µM [falling, partial curve]"
CCC(=O)c1ccc(OC(=O)Cc2ccc(OC)cc2)cc1,"29.1 µM [rising, single point]",16.7,–
Cc1oc2cc3oc(=O)c(CCC(=O)NC4CC4)c(C)c3cc2c1C,–,-12.6,–
COCCNC(=O)c1ccc(N2CC3CC(C2)c2cccc(=O)n2C3)c(NC(=O)c2ccc(Br)o2)c1 (configuration not stated),"1.46 µM [falling, full curve, poor fit]",–,–
O=C(c1ccccc1)N1N=C(c2ccc(F)cc2)CC1(O)C(F)(F)F (configuration not stated),–,-31.1,"32.6 µM [falling, single point]"
O=C(c1ccc(N2CCN(C(=O)c3cccc(F)c3)CC2)cc1)c1cccc(F)c1,"1.64 µM [rising, partial curve]",18.4,–
CCc1ccc(NC(=O)CCc2c(C)nn(-c3ccc(N4CCOCC4)nn3)c2C)cc1,"29.1 µM [falling, single point]",–,–
CCCCn1c(N)c(N(C)C(=O)c2ccccc2Oc2ccccc2)c(=O)[nH]c1=O,"0.00731 µM [rising, full curve, poor fit]",0.71,–
COc1ccccc1NC(=O)CN(Cc1ccco1)C(=O)c1cncc(Br)c1,"4.61 µM [rising, full curve]",24.9,–
COc1ccc(C(=O)C(=O)c2ccc(OCCO)cc2)cc1,"0.82 µM [rising, single point]",-20.9,–
COc1ccc(CNC(=O)c2ccccc2C(=O)O)cc1,"25.9 µM [falling, partial curve, poor fit]",-33.9,"32.6 µM [falling, single point]"
O=C1OC(Nc2ccc(F)c([N+](=O)[O-])c2)c2ccccc21 (configuration not stated),"29.1 µM [rising, single point]",31.5,"29.1 µM [rising, single point]"
CC(=Nc1ccc(C)cc1C)c1sc2ccccc2c1O,"23.1 µM [falling, single point]",-40.1,"29.1 µM [falling, single point]"
COc1ccc(/C=N/NC(=O)CC(=O)NCc2cccnc2)cc1[N+](=O)[O-],"6.51 µM [rising, single point]",-18.2,–
Cc1oc(-c2ccccc2Cl)nc1CSCC(=O)NC1CCCC1,"29.1 µM [rising, single point]",40.8,"20.6 µM [rising, single point]"
Cc1ccccc1CNC(=O)C1CCC(=O)N(CC2CCCCC2)C1 (configuration not stated),–,17.3,–
